Measurements: PMC11653710
No constants are given. Whether binding was seen depends on the method and setting. In cells and extracts the contact can be indirect. Some binding calls cover weakened binding; strength is not graded here. For some of these results: Where a sequence is shown, tags or fusion partners need not be part of it.

By UniProt entry, the sequences of proteins in these tests, tags left out. Residues count along the entry.
UniProt Q6YHK3, residues 22-1420: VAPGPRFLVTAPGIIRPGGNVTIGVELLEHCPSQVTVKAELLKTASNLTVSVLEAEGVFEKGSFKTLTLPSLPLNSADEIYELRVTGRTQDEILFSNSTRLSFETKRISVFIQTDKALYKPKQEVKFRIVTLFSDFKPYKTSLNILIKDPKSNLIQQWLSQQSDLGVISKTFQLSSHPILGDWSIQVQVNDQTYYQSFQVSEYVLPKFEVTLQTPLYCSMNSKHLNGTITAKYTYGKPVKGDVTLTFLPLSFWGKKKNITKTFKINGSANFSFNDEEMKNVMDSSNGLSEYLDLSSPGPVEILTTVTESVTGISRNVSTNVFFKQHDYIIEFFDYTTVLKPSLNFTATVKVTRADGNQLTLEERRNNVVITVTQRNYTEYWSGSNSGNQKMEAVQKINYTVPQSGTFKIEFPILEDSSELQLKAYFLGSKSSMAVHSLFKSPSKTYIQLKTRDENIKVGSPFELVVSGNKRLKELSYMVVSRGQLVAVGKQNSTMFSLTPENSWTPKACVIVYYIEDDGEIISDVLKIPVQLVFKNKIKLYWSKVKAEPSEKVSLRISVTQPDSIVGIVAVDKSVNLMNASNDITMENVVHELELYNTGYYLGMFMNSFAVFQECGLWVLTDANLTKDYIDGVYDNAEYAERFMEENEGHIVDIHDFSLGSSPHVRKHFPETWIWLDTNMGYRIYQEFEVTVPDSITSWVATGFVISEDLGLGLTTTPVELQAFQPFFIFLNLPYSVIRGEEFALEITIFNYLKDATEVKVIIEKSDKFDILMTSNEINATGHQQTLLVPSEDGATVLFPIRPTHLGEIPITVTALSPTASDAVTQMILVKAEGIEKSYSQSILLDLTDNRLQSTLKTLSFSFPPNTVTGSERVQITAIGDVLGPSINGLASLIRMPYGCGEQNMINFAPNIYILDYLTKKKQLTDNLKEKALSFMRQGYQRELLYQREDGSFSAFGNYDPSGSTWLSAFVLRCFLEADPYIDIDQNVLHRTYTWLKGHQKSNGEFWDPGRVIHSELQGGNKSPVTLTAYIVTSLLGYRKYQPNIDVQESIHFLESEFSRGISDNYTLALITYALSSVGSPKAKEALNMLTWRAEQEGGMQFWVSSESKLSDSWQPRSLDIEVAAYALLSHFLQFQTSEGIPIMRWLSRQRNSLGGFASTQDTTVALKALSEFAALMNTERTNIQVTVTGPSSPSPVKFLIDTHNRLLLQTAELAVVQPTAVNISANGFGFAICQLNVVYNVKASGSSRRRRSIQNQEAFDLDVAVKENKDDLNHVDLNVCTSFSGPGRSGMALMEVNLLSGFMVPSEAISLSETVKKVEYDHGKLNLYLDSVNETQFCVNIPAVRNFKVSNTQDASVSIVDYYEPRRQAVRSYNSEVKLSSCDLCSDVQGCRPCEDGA
UniProt Q704Y3: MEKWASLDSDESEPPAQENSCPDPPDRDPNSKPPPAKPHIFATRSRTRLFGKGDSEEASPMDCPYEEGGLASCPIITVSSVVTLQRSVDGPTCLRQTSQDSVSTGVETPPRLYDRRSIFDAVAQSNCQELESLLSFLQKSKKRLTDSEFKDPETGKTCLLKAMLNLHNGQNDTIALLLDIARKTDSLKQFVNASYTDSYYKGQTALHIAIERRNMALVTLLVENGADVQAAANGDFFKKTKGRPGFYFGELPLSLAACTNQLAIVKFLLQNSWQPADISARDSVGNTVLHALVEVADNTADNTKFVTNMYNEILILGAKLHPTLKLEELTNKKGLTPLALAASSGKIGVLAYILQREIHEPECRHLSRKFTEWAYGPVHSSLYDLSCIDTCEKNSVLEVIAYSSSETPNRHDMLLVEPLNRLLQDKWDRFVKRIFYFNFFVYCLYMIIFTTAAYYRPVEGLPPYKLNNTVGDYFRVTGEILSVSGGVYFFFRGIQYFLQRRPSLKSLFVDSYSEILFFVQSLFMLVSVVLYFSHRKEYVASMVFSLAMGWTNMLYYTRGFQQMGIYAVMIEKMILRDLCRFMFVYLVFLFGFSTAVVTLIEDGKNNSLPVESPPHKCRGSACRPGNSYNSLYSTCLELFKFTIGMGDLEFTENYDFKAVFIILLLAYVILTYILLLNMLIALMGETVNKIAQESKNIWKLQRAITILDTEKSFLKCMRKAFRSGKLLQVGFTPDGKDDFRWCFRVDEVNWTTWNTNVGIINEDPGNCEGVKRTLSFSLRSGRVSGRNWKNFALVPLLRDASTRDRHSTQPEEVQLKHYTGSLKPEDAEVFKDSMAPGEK

Legend:
[1] = molecular target: CD109 (as in the co-IP and PLA with TRPV1 of DRG cells) (UniProt Q6YHK3); test: co-IP; CD109 and TRPV1, DRG cells
[2] = molecular target: GST-labeled recombinant CD109 protein (UniProt Q6YHK3); test: pull-down; GST pull-down with GST-labeled recombinant CD109 and proteins of DRG cells; silver staining, band at 71-117 kDa identified as TRPV1; only the target purified
[3] = molecular target: CD109 (as in the co-IP and PLA with TRPV1 of DRG cells) (UniProt Q6YHK3); test: proximity ligation; PLA of CD109 and TRPV1 on the membrane of DRG cells
[4] = molecular target: T1, His-labeled Rab5B (UniProt P61020); test: co-IP; His-labeled Rab5B in PANC-1 cells; with CD109 knockdown, CD109 overexpression, circPNIT knockdown
T1 sequence: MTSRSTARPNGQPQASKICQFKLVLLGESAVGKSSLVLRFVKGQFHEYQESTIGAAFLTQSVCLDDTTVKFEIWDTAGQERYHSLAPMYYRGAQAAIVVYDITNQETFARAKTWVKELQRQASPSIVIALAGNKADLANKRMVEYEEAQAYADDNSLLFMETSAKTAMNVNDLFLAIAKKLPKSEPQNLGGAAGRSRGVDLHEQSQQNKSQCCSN

## TRPV1 (from UniProt Q704Y3 1-839) (receptor)
[1]
  binding: binds
[2]
  binding: binds
[3]
  binding: binds

B1: Flotillin 1 (protein, UniProt O75955 1-427)
chain: MFFTCGPNEAMVVSGFCRSPPVMVAGGRVFVLPCIQQIQRISLNTLTLNVKSEKVYTRHGVPISVTGIAQVKIQGQNKEMLAAACQMFLGKTEAEIAHIALETLEGHQRAIMAHMTVEEIYKDRQKFSEQVFKVASSDLVNMGISVVSYTLKDIHDDQDYLHSLGKARTAQVQKDARIGEAEAKRDAGIREAKAKQEKVSAQYLSEIEMAKAQRDYELKKAAYDIEVNTRRAQADLAYQLQVAKTKQQIEEQRVQVQVVERAQQVAVQEQEIARREKELEARVRKPAEAERYKLERLAEAEKSQLIMQAEAEAASVRMRGEAEAFAIGARARAEAEQMAKKAEAFQLYQEAAQLDMLLEKLPQVAEEISGPLTSANKITLVSSGSGTMGAAKVTGEVLDILTRLPESVERLTGVSISQVNHKPLRTA
[4]
  binding: binds
